This note sets out measurements from the RNAGym collection of RNA variant scans (doi:10.1126/science.aae0568).

The chains are these.
B1: tRNA (parent)
chain: GUUCCGUUGGCGUAAUGGUAACGCGUCUCCCUCCUAAGGAGAAGACUGCGGGUUCGAGUCCCGUACGGAACG

Variants at the background level are over-represented here. Bounds are passed on as bounds.

Variants of B1 are the subject of this data set. Nature of the data set: yeast fitness relative to wild type (ratio to wild type); higher = fitter; tRNA-Arg(CCU), competitive growth, 37 C, YPD. The method in brief: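 Amplicons of the tRNA-Arg(CCU) gene were sequenced, 100-nucleotide paired-end, from the start population and from each end population of a pooled yeast competition. The competition, in six parallel replicates, lasted 24 hours in YPD at 37°C. Fitness relative to wild type was calculated from changes in genotype frequencies. Genotypes had to have ≥ 100 starting reads, and estimates < 0.5 were set to 0.5.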
As to A14U G25A C30G C62G, the yeast fitness was at most 0.5. A20U G25A C49G: the yeast fitness came out at 0.619. Consider A20U A42U C49U U59A, for which the yeast fitness was at most 0.5.

In the case of U2A U26C C55U C66U, the yeast fitness was at most 0.5. In the case of A15G A37U A43C, the yeast fitness worked out at 0.518. C11G C49G A57U: the yeast fitness was at most 0.5.

Consider U7G G48A, for which the yeast fitness was found to be 0.847. For C31G G51A A57C the value was at most 0.5.

Take C5A U19C C29G C31U G58C: the yeast fitness was at most 0.5.

With C11G C34U C55U C66U, the yeast fitness was at most 0.5.

On to C5U C11U C29A A40C A45C C61G, for which the yeast fitness was 0.612. Consider G18C A37U G38C, for which the yeast fitness was at most 0.5. The result for U26A C27A U28A C34U G68A A69C reads 0.534; that for A15U C31A U59A A70G, at most 0.5. Take C11U G17A G48C: the yeast fitness is at most 0.5.

In the case of G39A G67A, the yeast fitness was determined as 0.769. As to C11U U13G C29U C34G C46G A57G, the yeast fitness was at most 0.5. Take U3A C4A U54C: the yeast fitness was at most 0.5.

Take A20G C24G C27U C66A: the yeast fitness is at most 0.5.

Turning to C11G A20G C49G, the yeast fitness was at most 0.5. With C5A U47C A70G, the yeast fitness worked out at 0.705.

With U3A G25A C31U G63C G67C A69U, the yeast fitness is at most 0.5. As to C11G G23C U35G G39C G50C, the yeast fitness was at most 0.5. For G18C C29A, the yeast fitness is at most 0.5. With C4A U8A C24U A65G, the yeast fitness was at most 0.5. On to C24A C62U A70C, for which the yeast fitness is at most 0.5.

On to U7A C22G C30U A37G A45U, for which the yeast fitness is at most 0.5. U2G C33G G39C C55U C66U: the yeast fitness was at most 0.5.

Consider A42C C46G A65U, for which the yeast fitness was at most 0.5. For C27A C29G C33U A37C G50A C66U the value was at most 0.5; for A21C G25C U26G C60G A65G, at most 0.5.

In the case of C27U U28C G38A A69C A70G, the yeast fitness was at most 0.5.

In the case of G9A A14C U59A C60G, the yeast fitness is at most 0.5. For U3C C11A A43C the value was at most 0.5; for A15C A21U G23A, at most 0.5. For the variant A15G C55A A57U, the yeast fitness is at most 0.5. For C34A G52C C60G G68C, the yeast fitness is at most 0.5. Turning to U2G A15G G17A G52C, the yeast fitness was at most 0.5. Turning to G9A C27U A36G, the yeast fitness came to 0.59. Consider A20G C22G G38C A42C G63A, for which the yeast fitness is at most 0.5. As for U2A C27G A36G C60U A70G, the yeast fitness was at most 0.5. For C4G A40C A42C G56A the value was at most 0.5; for A43G G56C C60U, at most 0.5; for C29U C34G U47C, at most 0.5. C4A A40C C55G A65C: the yeast fitness is at most 0.5.

In the case of C4U U32G U53A G68A, the yeast fitness was at most 0.5. On to G18C A43C, for which the yeast fitness worked out at 0.719. Regarding C33A G39C C66U, the yeast fitness is at most 0.5. The result for C11U A20U A43G G52C U53C G63C reads at most 0.5. Take G12C C29G C31A C60G: the yeast fitness is at most 0.5.

On to C27U C46U G48A A70C, for which the yeast fitness turned out to be 0.669. Turning to U35A A40U A57U, the yeast fitness turned out to be 0.625. C4U A15C C29G C30G A43C: the yeast fitness is at most 0.5.

With C11U G18A G23C C34U U59A A70C, the yeast fitness is at most 0.5.

With U3G G6A U8C, the yeast fitness is at most 0.5. As for G6A G10C C34U A40C, the yeast fitness was at most 0.5. For the variant C33A C34G G50A A70U, the yeast fitness was at most 0.5.

As to C4U C11U G23C A43C, the yeast fitness was at most 0.5. The result for G17A U19A A21C G44C reads at most 0.5; that for A14G C24U C34U C61U, at most 0.5. For the variant C5A G17C G50C C60U C62A, the yeast fitness was at most 0.5. Regarding C27G C49U A65C, the yeast fitness is at most 0.5. On to G18A C33U A37U U59A A65U, for which the yeast fitness is at most 0.5. On to G17C C46U G68A, for which the yeast fitness was at most 0.5. For C30A A40G G50A C55U C61G A65C A70C the value was at most 0.5; for G23C C27G C34U U35A G38A A65U, at most 0.5; for G17A A21G U26C C66A, at most 0.5.

As to U16C A20C A65U G68A, the yeast fitness was at most 0.5. For the variant A15C C30G A69C A70G, the yeast fitness is at most 0.5. On to C4U C34A A69G, for which the yeast fitness was at most 0.5. With G12A C30U A45C, the yeast fitness is at most 0.5. As for C5A A15G C29U C34U A40C G56A, the yeast fitness is at most 0.5. Take C5G U26C G44A A70G: the yeast fitness was at most 0.5. For the variant C4G U28C C33G G38A C62G U64G, the yeast fitness is at most 0.5. G6A C24U A57G C61G C66U A69U: the yeast fitness was at most 0.5. The result for C5G A15U C30A C31A reads at most 0.5; that for A15U C34U A70U, at most 0.5; that for C31G C34A C66A G67A A70G, at most 0.5.

For C4G G17C A37U, the yeast fitness was at most 0.5. As for A21U C24A C46U C62A, the yeast fitness was at most 0.5.

Regarding A15U A65U, the yeast fitness came out at 0.775. In the case of G10C C33G C62A G67C, the yeast fitness was at most 0.5. The result for G17A C49A U54A C61U U64A reads at most 0.5; that for C22G C49G C62U, at most 0.5; that for C24U U32G A42G, at most 0.5. For A14G C24G C31U C55A G68C the value was at most 0.5; for A15C A20C A21U C30U A40U, at most 0.5. In the case of C22U A40C C62G, the yeast fitness is at most 0.5. With A14U A40U U54A C55U U64C, the yeast fitness was at most 0.5. For the variant C24A U64C, the yeast fitness was 0.706.

For G10C C33A A40U U54A, the yeast fitness was at most 0.5. For U54G C61A A69C, the yeast fitness was at most 0.5.

Consider C11A C33G C61A, for which the yeast fitness was at most 0.5. For the variant C24U C49U U59G G67U, the yeast fitness was at most 0.5.

Consider C5U U13C C30U A40G G50A, for which the yeast fitness is at most 0.5.

In the case of C4A C11U A14U A20C U28G, the yeast fitness is at most 0.5.

With C4U C33U C55A, the yeast fitness was at most 0.5. The result for C4G C29G A36C G39C U53A reads at most 0.5. In the case of U3C G9A U32G C34U A57G, the yeast fitness was at most 0.5. The result for C30G A37U C61U reads at most 0.5; that for G18C G58C C61U G68A, at most 0.5; that for C27U A57U G63A, at most 0.5. For A21U G68C the value was 0.687. The result for U7C C30G G56C C61U A65C reads at most 0.5; that for C31G G52U G56C, at most 0.5; that for U32A G41C C49G G52A C55U, at most 0.5.

For C4U A20U G25C C60G, the yeast fitness was at most 0.5.

Take C5G G6C A15G C62U: the yeast fitness is at most 0.5.

In the case of A21G A45G C46G A70U, the yeast fitness is at most 0.5.

With A37U G51C G52A, the yeast fitness is at most 0.5. In the case of A14U A37C U47C, the yeast fitness was at most 0.5. For C4U A14C A15U the value was at most 0.5. For U7A A15U C30G A42C U59A C60U, the yeast fitness was at most 0.5.

On to C22U G38C C46U, for which the yeast fitness is at most 0.5. Regarding A36U C46U G48C, the yeast fitness was at most 0.5.

Take C22G C31G U59C: the yeast fitness is at most 0.5. As for U35C C55G C66U A70C, the yeast fitness is at most 0.5. On to C24G A40C A43C C46U G68C A69U, for which the yeast fitness was at most 0.5. For C24G C27G A37C A45U A65G the value was at most 0.5.

As to U7C U26G G44A G48A G50C, the yeast fitness was at most 0.5. Consider C24G U35C C55U, for which the yeast fitness is at most 0.5. For C4G C5A C11U G18C C55U, the yeast fitness was at most 0.5. Consider U19C A21C C27U C61G, for which the yeast fitness is at most 0.5. On to U8C A15U C22U A40C G48C U54C C62U, for which the yeast fitness turned out to be 0.557. Regarding G6A A15G C24U C61G C66U A69U, the yeast fitness is at most 0.5. Take C5A C24G C31G C33A G58C C60A A70C: the yeast fitness was at most 0.5. The result for C60A A65U A70G reads at most 0.5; that for A57U C60A G68C, at most 0.5. Turning to C5G U7C A14U C24U C46G C61G, the yeast fitness was at most 0.5. Turning to U3G C27G U35C G68U, the yeast fitness is at most 0.5. For A21C C22A C60U, the yeast fitness is at most 0.5. G44A C49A U59A C66U: the yeast fitness was at most 0.5. Turning to C34G C46A U64A, the yeast fitness was at most 0.5. For A15U C30G C34U G63U the value was at most 0.5; for A45C G52A U53C G58A C62G, at most 0.5; for C24A G48A U53G G63U, at most 0.5. For A15C C24G A45G U47C the value was at most 0.5; for G17A C30G G39C U59C G63C, at most 0.5. With C24G A65U G67C, the yeast fitness is at most 0.5.

For U8C U13G C22U U54C C62U G68C, the yeast fitness was at most 0.5.

On to A14G C46U, for which the yeast fitness was found to be 0.886. On to U32C A37G C55A A65U G68C, for which the yeast fitness is 0.575.

On to C27G G56C A65G, for which the yeast fitness is at most 0.5. On to G12A A14G U16A C33A C55U, for which the yeast fitness was at most 0.5.

Take C5G G10C A65C: the yeast fitness is at most 0.5. Take C24A C31G C60U: the yeast fitness is at most 0.5. For the variant C33U A36U G41C A65G, the yeast fitness was at most 0.5.

With C11G G12A A21G, the yeast fitness is at most 0.5. On to C29A U47A G48A, for which the yeast fitness is at most 0.5. With U3A A21C C24G C60G, the yeast fitness was at most 0.5.

Take A21U G56C G63A U64C G67C: the yeast fitness was at most 0.5. In the case of C11A U16C G18C A45C A57C G67A, the yeast fitness is at most 0.5.

U13A A14C C22A A36C: the yeast fitness was at most 0.5. A15U U35G A37C G51C C61G: the yeast fitness was at most 0.5. For C33G C60A C66G the value was at most 0.5; for G6A A20G C24U A40G A43G C55U, at most 0.5; for C24U U26A U28G U47C U54G, at most 0.5. Consider A15U G52C C60U, for which the yeast fitness is at most 0.5. The result for U2A G9A A37C A42C reads at most 0.5; that for C11U U32C A37U G52A C66A, at most 0.5; that for U16A A21G C22U G48C G63C, at most 0.5.

In the case of C11U A20G C24U C61U U64C, the yeast fitness is at most 0.5. C5U C33G G50C C62G C66U: the yeast fitness was at most 0.5.

For C34U C62G C66G G67U, the yeast fitness is at most 0.5.

G6A C11G A20G: the yeast fitness was at most 0.5. Consider C11U C33U G48A, for which the yeast fitness came to 0.58. On to C49U G58C C62G A69C, for which the yeast fitness is 0.559.
